Literature values in Sander's compilation of Henry's law constants (doi:10.1016/s0016-7037(99)00330-0).

Experiment: Henry solubility constant Hcp at 298.15 K (mol/(m3 Pa))
Details: reference: Plyasunov and Shock (2000); cited value

Henry solubility constant Hcp: 8e-05
SMILES: C=CCC=C [1,4-pentadiene]
